Results are given in words; binding and its absence hold for the method and conditions named. For some of these results: Binding seen in cells or lysates may run through a third protein. Some entries that bind do so weakly or less than the wild type.
Experiments:
[1] = biological target: Recombinant wild type human Plasminogen Activator Inhibitor type 1 (PAI-1) (human) (UniProt P05121); assay: co-immunoprecipitation with anti-PAI-1 antibody (sheet: IP PA-1), Western blot for 14K GH; recombinant proteins
[2] = biological target: Recombinant wild type human Plasminogen Activator Inhibitor type 1 (PAI-1) (human) (UniProt P05121); assay: co-immunoprecipitation with anti-PAI-1 mAb 33H1F7, Western blot
[3] = biological target: Recombinant wild type human Plasminogen Activator Inhibitor type 1 (PAI-1) (human) (UniProt P05121); assay: yeast two-hybrid, 14K hGH Gal4 bait, PAI-1 prey
[4] = biological target: T1, Endogenous murine PAI-1 (mouse plasma) (mouse) (UniProt P22777); assay: immunoprecipitation of PAI-1 from mouse plasma, Western blot for 14K GH
T1 sequence (looked up): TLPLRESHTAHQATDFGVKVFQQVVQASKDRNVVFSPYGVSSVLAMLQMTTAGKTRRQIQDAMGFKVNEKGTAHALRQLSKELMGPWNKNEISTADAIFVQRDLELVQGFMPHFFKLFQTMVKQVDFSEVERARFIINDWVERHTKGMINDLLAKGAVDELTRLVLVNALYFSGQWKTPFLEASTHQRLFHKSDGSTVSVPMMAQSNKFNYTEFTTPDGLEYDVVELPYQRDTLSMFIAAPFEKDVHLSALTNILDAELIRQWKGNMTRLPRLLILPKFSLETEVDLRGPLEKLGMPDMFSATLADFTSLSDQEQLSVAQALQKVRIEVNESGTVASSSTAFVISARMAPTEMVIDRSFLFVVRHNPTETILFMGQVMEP

By UniProt entry, the sequences of proteins in these tests, tags left out. Where a name states a change or a piece, a line headed by the entry shows the natural chain unless it says otherwise. Residues count along the entry.
UniProt P00750, residues 36-562: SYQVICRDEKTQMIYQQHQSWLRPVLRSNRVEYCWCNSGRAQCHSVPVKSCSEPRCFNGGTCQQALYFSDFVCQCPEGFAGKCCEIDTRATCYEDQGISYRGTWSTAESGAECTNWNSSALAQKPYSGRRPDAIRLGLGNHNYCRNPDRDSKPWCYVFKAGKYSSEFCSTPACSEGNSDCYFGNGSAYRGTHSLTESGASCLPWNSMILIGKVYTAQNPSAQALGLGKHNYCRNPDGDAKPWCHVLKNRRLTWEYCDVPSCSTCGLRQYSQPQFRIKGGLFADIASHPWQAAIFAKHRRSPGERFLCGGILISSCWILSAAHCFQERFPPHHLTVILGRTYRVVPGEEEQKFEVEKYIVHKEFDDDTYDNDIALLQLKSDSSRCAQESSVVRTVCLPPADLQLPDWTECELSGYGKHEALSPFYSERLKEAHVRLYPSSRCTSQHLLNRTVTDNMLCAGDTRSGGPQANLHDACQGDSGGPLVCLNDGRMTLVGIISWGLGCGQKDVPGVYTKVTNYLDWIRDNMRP
UniProt P01241: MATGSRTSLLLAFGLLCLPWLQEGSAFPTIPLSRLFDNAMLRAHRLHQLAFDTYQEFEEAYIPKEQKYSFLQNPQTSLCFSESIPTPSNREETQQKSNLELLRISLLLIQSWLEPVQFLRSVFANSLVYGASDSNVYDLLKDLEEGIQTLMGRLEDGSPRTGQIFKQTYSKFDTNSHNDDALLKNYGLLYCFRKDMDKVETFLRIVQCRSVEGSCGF

[5] = biological target: Endogenous human PAI-1 (HUVEC conditioned medium; human plasma) (human) (UniProt P05121); assay: immunoprecipitation of PAI-1 from human plasma, Western blot for 14K GH
[6] = biological target: T1, Endogenous murine PAI-1 (mouse plasma) (mouse); assay: co-immunoprecipitation from mouse plasma, Western blot
[7] = biological target: Endogenous human PAI-1 (HUVEC conditioned medium; human plasma) (human) (UniProt P05121); assay: co-immunoprecipitation with anti-PAI-1 mAb 33H1F7, Western blot (figure legend)
[8] = biological target: Recombinant wild type human Plasminogen Activator Inhibitor type 1 (PAI-1) (human) (UniProt P05121); assay: as above
[9] = biological target: Endogenous human PAI-1 (HUVEC conditioned medium; human plasma) (human) (UniProt P05121); assay: immunoprecipitation of endogenous PAI-1 from HUVEC conditioned medium (sheet: IP PA-1), Western blot for 14K GH
[10] = biological target: Endogenous human PAI-1 (HUVEC conditioned medium; human plasma) (human) (UniProt P05121); assay: co-immunoprecipitation from HUVEC conditioned medium, Western blot
[11] = biological target: Endogenous human PAI-1 (HUVEC conditioned medium; human plasma) (human) (UniProt P05121); assay: co-immunoprecipitation from human plasma, Western blot
[12] = biological target: tissue-type plasminogen activator (tPA) (UniProt P00750); assay: SDS-PAGE with silver stain of the SDS-stable PAI-1/tPA complex
[13] = biological target: tissue-type plasminogen activator (tPA) (UniProt P00750); assay: SDS-PAGE, silver staining (figure legend)

| binding [1] | binding [2] | binding [3] | binding [4] | binding [5] | binding [6] | binding [7] | binding [8] | binding [9] | binding [10] | binding [11] | binding [12] | binding [13] | Substance |
| --- | --- | --- | --- | --- | --- | --- | --- | --- | --- | --- | --- | --- | --- |
| binds | binds | binds | binds | binds | binds | binds | binds | binds | binds | binds | – | – | Recombinant 14K N-terminal human growth hormone (14K hGH) (from UniProt P01241 27-159) |
| – | – | – | – | – | – | – | – | – | – | – | binds | binds | Recombinant wild type human Plasminogen Activator Inhibitor type 1 (PAI-1) (from UniProt P05121 24-402) |

Source: US20130035289A1, “PHARMACEUTICAL COMPOSITION FOR TREATMENT OF THROMBOSIS-RELATED DISEASES COMPRISING A FRAGMENT OF PROLACTIN (PRL)-GROWTH HORMONE (GH)-PLACENTAL LACTOGEN (PL)-FAMILY PROTEIN” (UNIVERSITE DE LIEGE, priority 2010, published 2013)
